Source: patent publication US20030235534A1, “Methods and compositions for radioimmunotherapy of brain and CNS tumors” (priority 2002, published 2003)
At least one peptide structure holds a part that was inferred or is arguable (an end, a ring closure or a residue). *1 amine or outer side, *2 acyl side, *3 side chain or, on linkers, in order; H or OH if unused. Where a SMILES comes first, the peptide text is derived from it. Side-chain parts run from the residue outwards. [ ]: non-standard residue; d: D form. The star is where a group is joined. DOTA = O=C(O)CN1CCN(CC(=O)O)CCN(CC(=O)*)CCN(CC(=O)O)CC1; NH(2-(imidazol-4-yl)ethyl) = c1ncc(CCN*)[nH]1; Suc = O=C(CCC(=O)[*:2])[*:1]

What was measured:
[1] = tested on: inoperable brain tumor in the pons; assay: Treatment of a brain cancer patient with pretargeted bispecific antibody-mediated radioimmunotherapy using an alpha-emitting radionuclide (intravenous); conditions: two courses 8 weeks apart, 3-month follow-up
glioblastoma multiforme = assay: Treatment of a brain cancer patient with pretargeted bispecific antibody-mediated radioimmunotherapy using an alpha-emitting radionuclide (hapten into surgical cavity)
glioblastome multiforme = assay: Treatment of a brain cancer patient with premixed bispecific antibody-mediated radioimmunotherapy using a beta-emitting radionuclide; conditions: 1:1 molar mixture with bispecific antibody of Example 1, 12 mCi Y-90

## NC(=O)[C@H](CCCCNC(=O)CNC(=O)CCC(=O)NCCc1cnc[nH]1)NC(=O)[C@@H](Cc1ccc(O)cc1)NC(=O)[C@H](CCCCNC(=O)CNC(=O)CCC(=O)NCCc1cnc[nH]1)NC(=O)[C@H](Cc1ccccc1)NC(=O)CN1CCN(CC(=O)O)CCN(CC(=O)O)CCN(CC(=O)O)CC1 [Ac-225-IMP 241, metal not drawn] ({DOTA}-FK([Gly-Suc-NH(2-(imidazol-4-yl)ethyl)])[dY]K([Gly-Suc-NH(2-(imidazol-4-yl)ethyl)])-NH2)
[1]; 1 mCi i.v. after bispecific antibody pretargeting
  reduction in tumor mass (MRI of the brain): about 30%
[1]; after bispecific antibody pretargeting
  motor functions and other neurological signs: improvement in motor functions and other neurological signs
Glioblastoma multiforme; after an additional 4 weeks (after the 12-week scan)
  decrease in the brain lesion (MRI): about 25%
Glioblastoma multiforme; four and 12 weeks after therapy
  progression of brain tumor (MRI): no progression is noted
Glioblastoma multiforme; radioimmunotherapy followed by tomozolomide chemotherapy, three months after start of chemotherapy
  regression of original tumor from the baseline studies (MRI): approximately 60%

## NC(=O)[C@H](CCCCNC(=O)CNC(=O)CCC(=O)NCCc1cnc[nH]1)NC(=O)[C@@H](Cc1ccc(O)cc1)NC(=O)[C@H](CCCCNC(=O)CNC(=O)CCC(=O)NCCc1cnc[nH]1)NC(=O)[C@H](Cc1ccccc1)NC(=O)CN1CCN(CC(=O)O)CCN(CC(=O)O)CCN(CC(=O)O)CC1 [Y-90-IMP 241, metal not drawn] ({DOTA}-FK([Gly-Suc-NH(2-(imidazol-4-yl)ethyl)])[dY]K([Gly-Suc-NH(2-(imidazol-4-yl)ethyl)])-NH2)
Glioblastome multiforme; 4-month follow-up
  reduction in the tumor mass (MRI): ~35%
Glioblastome multiforme; during nine months of follow-up, no further therapy
  tumor shrinkage: approximately 60%
